From patent EP2246037A2, “Anti-aging and whitening properties of quercetin, 18a-glycyrrhetinic acid, hederagenin and its derivatives” (Korres S.A. Natural Products, priority 2009, dated 2010)
Some of these results come from one statement about several compounds together.

Columns and labels:
[1] = test system: chymotrypsin-like activity of the proteasome; test: Chymotrypsin-like proteasome activity (LLVY-AMC hydrolysis) in extracts of treated cells; format: cell-based, human; conditions: 24 h treatment, versus relative control cultures
tyrosinase = test: Immunoblot of tyrosinase expression in melanocytes; format: cell-based, Mouse; conditions: summary of section B, concentration not given
Procedure: The steps, methods and results that were obtained regarding the whitening properties of the examined substances are the following: • A) Cellular whitening of melanocytes. • A.1. Mouse melanocytes (B10F16 cell line) were used in in vitro conditions (growth at 37°C, 5% CO2 and 95% humidity). • A.2. The cells were maintained in Dulbecco's modified Eagle's medium (DMEM®; Invitrogen Life Technologies Inc.) supplemented with 10% (v/v) fetal calf serum, 100 Units/ml penicillin, 100 µg/ml strepromycin, 2 mM glutamine and 1% (v/v) non-essential amino acids (complete medium). • A.3. 10^5 cells were seeded in petri dishes and the following day they were fed with medium supplemented with the substances [final concentration for all substances: 5 µg/ml and 10 µg/ml]. Quercetin (QUER), 18α-glycyrrhetinic acid (18α GA) and hederagenin (HED) were diluted in DMSO whereas quercetin caprylate was diluted in caprilic/capric triglycerides (CAP). Therefore, the control cultures were incubated in medium supplemented with 0.1% DMSO or 0.1% CAP. The media were replenished every 24 h and the cells were kept under these conditions constantly for 72 h. Cells were then collected and pelleted and the cell pellet was photographed. • A.4. […] Protein concentrations were determined using the Bradford method with BSA as a standard. • B.2. […]

| Compound | induction of CT-L activity [1] | protein expression levels of tyrosinase (tyrosinase) |
| --- | --- | --- |
| O=c1c(O)c(-c2ccc(O)c(O)c2)oc2cc(O)cc(O)c12 [Quercetin] | 1.5-2.5 folds | decrease |
| quercetin caprylate | 1.5-2.5 folds | – |
